Experimental data from the M2OR odorant receptor database.
Positions count from the first letter of the chain named. Only a part is listed here, and it is no random draw. The calls were merged from several studies; some rest on single wells. Some of the results follow.

Chains of the proteins cited; added tags and fusions are not shown. Chains listed by the source or under a name are the forms on record and can include a tag or linker.
OR8K5, as listed by the source: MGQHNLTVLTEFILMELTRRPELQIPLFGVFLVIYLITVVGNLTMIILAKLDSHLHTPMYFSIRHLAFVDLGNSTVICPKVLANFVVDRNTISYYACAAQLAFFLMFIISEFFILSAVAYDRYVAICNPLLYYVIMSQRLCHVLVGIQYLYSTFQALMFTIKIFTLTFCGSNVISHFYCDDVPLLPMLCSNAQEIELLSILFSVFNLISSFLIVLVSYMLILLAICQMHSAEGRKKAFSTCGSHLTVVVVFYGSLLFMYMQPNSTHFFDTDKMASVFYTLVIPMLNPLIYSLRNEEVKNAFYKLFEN

What follows are compounds tested against T1, OR8K5 (Homo sapiens) (UniProt Q8NH50). Settings: stereoisomer not certain.
T1 sequence (whole entry): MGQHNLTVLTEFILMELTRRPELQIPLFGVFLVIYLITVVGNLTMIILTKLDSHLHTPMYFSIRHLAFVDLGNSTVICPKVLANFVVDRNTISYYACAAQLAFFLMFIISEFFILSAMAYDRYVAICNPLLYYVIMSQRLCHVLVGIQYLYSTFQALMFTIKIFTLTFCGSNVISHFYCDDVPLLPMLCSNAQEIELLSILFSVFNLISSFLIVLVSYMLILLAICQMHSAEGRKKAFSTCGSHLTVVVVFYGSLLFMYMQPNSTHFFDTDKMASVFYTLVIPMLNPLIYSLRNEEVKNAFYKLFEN
Outline: (§1)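 Each receptor–molecule pair is labelled responsive or non-responsive (inactive) according to whether the original authors judged the measured signal statistically different from baseline. The data were taken from the main text and supplementary material of published papers and checked for typos and inconsistencies. Assay methods differed by source, with transient luciferase assays in mammalian cell lines being common.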
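Further: active if original authors judged signal statistically different from baseline.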

Row | Compound | odorant receptor agonist call
1 | C=C(C)C1CC=C(C)C(=O)C1 (configuration not stated) | active
2 | CC(=O)c1ccccc1 | inactive
3 | CC12C=CCC1C1CCC3CC(=O)CCC3(C)C1CC2 (configuration not stated) | inactive

These compounds were tested on T2, OR8K5. Settings: stereoisomer not certain.
T2 sequence (whole entry): T1 sequence (whole entry) with T49A, M118V
Outline: as §1

Row | Compound | odorant receptor agonist call
4 | C=CCc1ccc(OC)c(OC)c1 | inactive
5 | CCCCCC(C)=O | inactive
6 | CC(C)=CCCC(C)=CC=O | inactive
7 | CCCCCOC(C)=O | inactive
8 | CC1CCC(C(C)C)C(O)C1 (configuration not stated) | inactive
9 | COc1ccccc1O | inactive
10 | C=CCSCC=C | inactive
11 | CCCCCC(=O)O | inactive
12 | C=CCc1ccc(OC(C)=O)c(OC)c1 | inactive
13 | CC(C)C(=O)O | inactive
14 | O=C1CCCCCCCCCCCC(=O)OCCO1 | inactive
15 | C=CC(C)(O)CCC=C(C)C (configuration not stated) | inactive
16 | CC(=O)c1ccccc1 | inactive
17 | CC(=O)C(C)=O | inactive
18 | O=C1CCCCCCCCCCCCCCO1 | inactive
19 | CC(C)C=O | inactive
20 | CC(=O)OCC=C(C)CCC=C(C)C | inactive
21 | O=CCc1ccccc1 | inactive
22 | CC(C)CC(=O)O | inactive
23 | COC(=O)c1ccccc1O | inactive
24 | CC12C=CCC1C1CCC3CC(=O)CCC3(C)C1CC2 (configuration not stated) | active
25 | CC=Cc1ccc(O)c(OC)c1 | inactive
26 | CC(C)CCC(=O)O | inactive
27 | CCCCCCCCCCC=O | inactive
